Assay results published in article PMC12455970.
No constants are given. Whether binding was seen depends on the method and setting. In cells and extracts the contact can be indirect. Here binding means that the protein was enriched with, or labelled near, the bait; the list need not be complete. A no says only that the protein was not detected with the bait.

The chains behind the UniProt entries cited, without tags or fusion partners.
UniProt P10192: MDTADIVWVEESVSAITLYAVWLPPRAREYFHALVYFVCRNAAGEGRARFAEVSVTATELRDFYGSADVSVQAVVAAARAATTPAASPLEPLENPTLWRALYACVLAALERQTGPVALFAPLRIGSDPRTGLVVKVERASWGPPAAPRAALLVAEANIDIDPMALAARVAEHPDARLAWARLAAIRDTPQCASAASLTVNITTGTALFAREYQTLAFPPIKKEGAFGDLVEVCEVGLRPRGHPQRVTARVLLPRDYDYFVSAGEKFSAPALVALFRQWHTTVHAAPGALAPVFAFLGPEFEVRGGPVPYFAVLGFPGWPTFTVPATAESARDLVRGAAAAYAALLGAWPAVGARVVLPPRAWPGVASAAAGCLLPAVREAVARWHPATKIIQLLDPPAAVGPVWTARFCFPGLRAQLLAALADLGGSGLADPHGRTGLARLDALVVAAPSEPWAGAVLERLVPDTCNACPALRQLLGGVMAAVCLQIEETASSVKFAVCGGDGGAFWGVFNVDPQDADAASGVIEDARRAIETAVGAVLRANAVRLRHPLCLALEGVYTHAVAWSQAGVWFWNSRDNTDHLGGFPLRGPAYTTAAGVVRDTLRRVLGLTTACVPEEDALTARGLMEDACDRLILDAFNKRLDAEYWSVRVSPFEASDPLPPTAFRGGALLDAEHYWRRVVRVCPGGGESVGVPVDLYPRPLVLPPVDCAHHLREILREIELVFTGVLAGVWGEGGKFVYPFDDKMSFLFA
UniProt O60934: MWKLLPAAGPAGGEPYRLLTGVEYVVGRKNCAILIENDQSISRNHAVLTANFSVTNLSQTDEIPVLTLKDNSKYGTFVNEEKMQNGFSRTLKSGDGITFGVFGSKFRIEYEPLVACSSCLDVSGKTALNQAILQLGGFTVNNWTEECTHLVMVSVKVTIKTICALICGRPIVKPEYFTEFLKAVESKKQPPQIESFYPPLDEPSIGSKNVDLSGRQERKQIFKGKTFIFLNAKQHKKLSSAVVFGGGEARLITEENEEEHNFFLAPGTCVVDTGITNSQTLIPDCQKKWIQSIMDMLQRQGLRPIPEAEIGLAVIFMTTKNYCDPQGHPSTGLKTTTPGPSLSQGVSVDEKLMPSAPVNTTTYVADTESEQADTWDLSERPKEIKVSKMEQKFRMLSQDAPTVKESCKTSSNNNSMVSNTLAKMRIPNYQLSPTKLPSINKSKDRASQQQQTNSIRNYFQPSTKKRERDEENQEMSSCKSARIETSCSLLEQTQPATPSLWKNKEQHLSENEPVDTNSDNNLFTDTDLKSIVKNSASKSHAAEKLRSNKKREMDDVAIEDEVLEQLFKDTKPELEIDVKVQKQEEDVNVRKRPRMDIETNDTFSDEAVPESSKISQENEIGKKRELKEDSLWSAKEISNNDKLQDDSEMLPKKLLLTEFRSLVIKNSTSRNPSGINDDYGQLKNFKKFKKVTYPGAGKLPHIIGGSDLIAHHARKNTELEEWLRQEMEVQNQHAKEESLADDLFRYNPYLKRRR
UniProt Q92878: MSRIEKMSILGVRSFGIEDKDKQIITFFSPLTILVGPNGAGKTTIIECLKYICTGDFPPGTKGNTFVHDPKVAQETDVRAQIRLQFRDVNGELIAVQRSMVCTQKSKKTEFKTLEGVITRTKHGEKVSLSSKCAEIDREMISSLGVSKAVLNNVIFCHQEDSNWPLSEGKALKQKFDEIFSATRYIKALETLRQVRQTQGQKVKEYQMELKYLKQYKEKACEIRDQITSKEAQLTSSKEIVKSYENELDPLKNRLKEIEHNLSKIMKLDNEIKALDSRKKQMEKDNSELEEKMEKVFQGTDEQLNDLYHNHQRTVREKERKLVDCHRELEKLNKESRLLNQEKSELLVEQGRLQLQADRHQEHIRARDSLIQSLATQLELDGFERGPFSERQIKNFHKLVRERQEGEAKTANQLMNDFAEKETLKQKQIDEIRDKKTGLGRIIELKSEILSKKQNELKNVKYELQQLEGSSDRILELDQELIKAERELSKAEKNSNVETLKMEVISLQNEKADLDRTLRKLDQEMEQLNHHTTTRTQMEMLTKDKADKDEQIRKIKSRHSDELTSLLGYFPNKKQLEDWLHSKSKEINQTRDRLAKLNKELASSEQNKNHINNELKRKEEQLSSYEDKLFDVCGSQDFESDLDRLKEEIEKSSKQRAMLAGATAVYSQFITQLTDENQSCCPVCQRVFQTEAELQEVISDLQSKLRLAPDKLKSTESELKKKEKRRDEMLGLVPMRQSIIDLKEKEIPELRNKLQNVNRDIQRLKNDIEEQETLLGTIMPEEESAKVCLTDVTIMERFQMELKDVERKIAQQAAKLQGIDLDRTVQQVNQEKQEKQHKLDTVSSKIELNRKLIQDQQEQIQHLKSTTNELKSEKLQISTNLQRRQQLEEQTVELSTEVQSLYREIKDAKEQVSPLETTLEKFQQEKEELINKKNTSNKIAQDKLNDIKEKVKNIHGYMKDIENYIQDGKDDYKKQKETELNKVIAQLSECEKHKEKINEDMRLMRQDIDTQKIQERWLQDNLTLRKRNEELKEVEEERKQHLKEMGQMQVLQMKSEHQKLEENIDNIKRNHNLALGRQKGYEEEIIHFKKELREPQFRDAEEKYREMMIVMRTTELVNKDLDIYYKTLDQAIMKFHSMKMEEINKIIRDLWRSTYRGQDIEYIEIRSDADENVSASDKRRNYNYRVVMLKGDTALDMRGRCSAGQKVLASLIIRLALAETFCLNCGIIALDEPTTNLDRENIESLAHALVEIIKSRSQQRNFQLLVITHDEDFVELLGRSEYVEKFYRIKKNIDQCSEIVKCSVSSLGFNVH

B1: Ubiquitin-specific protease 15 (USP15), endogenous in 293T (enzyme, UniProt Q9Y4E8 1-981)
chain: MAEGGAADLDTQRSDIATLLKTSLRKGDTWYLVDSRWFKQWKKYVGFDSWDKYQMGDQNVYPGPIDNSGLLKDGDAQSLKEHLIDELDYILLPTEGWNKLVSWYTLMEGQEPIARKVVEQGMFVKHCKVEVYLTELKLCENGNMNNVVTRRFSKADTIDTIEKEIRKIFSIPDEKETRLWNKYMSNTFEPLNKPDSTIQDAGLYQGQVLVIEQKNEDGTWPRGPSTPKSPGASNFSTLPKISPSSLSNNYNNMNNRNVKNSNYCLPSYTAYKNYDYSEPGRNNEQPGLCGLSNLGNTCFMNSAIQCLSNTPPLTEYFLNDKYQEELNFDNPLGMRGEIAKSYAELIKQMWSGKFSYVTPRAFKTQVGRFAPQFSGYQQQDCQELLAFLLDGLHEDLNRIRKKPYIQLKDADGRPDKVVAEEAWENHLKRNDSIIVDIFHGLFKSTLVCPECAKISVTFDPFCYLTLPLPMKKERTLEVYLVRMDPLTKPMQYKVVVPKIGNILDLCTALSALSGIPADKMIVTDIYNHRFHRIFAMDENLSSIMERDDIYVFEININRTEDTEHVIIPVCLREKFRHSSYTHHTGSSLFGQPFLMAVPRNNTEDKLYNLLLLRMCRYVKISTETEETEGSLHCCKDQNINGNGPNGIHEEGSPSEMETDEPDDESSQDQELPSENENSQSEDSVGGDNDSENGLCTEDTCKGQLTGHKKRLFTFQFNNLGNTDINYIKDDTRHIRFDDRQLRLDERSFLALDWDPDLKKRYFDENAAEDFEKHESVEYKPPKKPFVKLKDCIELFTTKEKLGAEDPWYCPNCKEHQQATKKLDLWSLPPVLVVHLKRFSYSRYMRDKLDTLVDFPINDLDMSEFLINPNAGPCRYNLIAVSNHYGGMGGGHYTAFAKNKDDGKWYYFDDSSVSTASEDQIVSKAAYVLFYQRQDTFSGTGFFPLDRETKGASAATGIPLESDEDSNDNDNDIENENCMHTN

Biological target: Flag-UL8 (HSV-1) (UniProt P10192)
Experiment: affinity purification with mass spectrometry

Molecule | binding
Nbs1 (from UniProt O60934 1-754) | no binding
Rad50 (from UniProt Q92878 1-1312) | no binding
B1 | no binding
